For some of these results: For at least one compound, name, drawing or mass did not settle the structure. Some entries share one result that the patent states for a list of compounds.
Experiments:
Assay type in all cases: cell-based, human
[1] = system: ligand-gated P2X-channels; test: Patch-clamp of ligand-gated P2X-channels, rapid nucleotide application; settings: rapid application of 300 µM; whole-cell voltage-clamp
[2] = system: NPCs; test: Dexamethasone in proliferation medium: marker expression; settings: varying concentrations; 10 and 17 days of exposure
[3] = system: NPCs; test: Dexamethasone in differentiation medium: expression of GFAP, TH and alpha-tubulin

Row | Compound | inward currents [1] | expression of PCNA [2] | expression of the glial marker GFAP ([3]; at higher concentrations) | expression of the dopaminergic marker TH ([3]; varying concentrations)
1 | Nc1ncnc2c1ncn2[C@@H]1O[C@H](COP(=O)(O)OP(=O)(O)OP(=O)(O)O)[C@@H](O)[C@H]1O [ATP, adenosine triphosphate] | did not induce any detectable inward currents | – | – | –
2 | C[C@@H]1C[C@H]2[C@@H]3CCC4=CC(=O)C=C[C@]4(C)[C@@]3(F)[C@@H](O)C[C@]2(C)[C@@]1(O)C(=O)CO [dexamethasone] | – | strongly increased | reduced | strongly enhanced

From patent publication EP1897937A1, “Method of culturing NPCs” (NeuroProgen GmbH Leipzig, priority 2006, dated 2008)
